Results: PubChem BioAssay AID662 (National Center for Advancing Translational Sciences (NCATS), 2007)
The other results are listed elsewhere or left out. Shown are side measurements of this screen, not its main read-out; they come without a call. Most of these compounds were active or inconclusive in the main read-out, so they are no random draw. The note in brackets gives the kind of curve behind each potency; many fits are weak.

Test: Cell signaling CRE-BLA (Fsk stim)
Conditions: CHO CRE-bla reporter (cAMP response element driving beta-lactamase), forskolin EC10, beta-lactamase ratio; measured here: 460 nm blue channel
Procedure, shortened: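 Forskolin analogue NKH 477 at EC10 stimulated CRE-driven beta-lactamase in CHO cells alongside compound dilution series. Beta-lactamase was measured with CCF4, excitation 405 nm, emission ratio 460/530 nm.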

Which AC50 does the source give for `CCOC(=O)C1=C(N)n2c(s/c(=C\c3cccs3)c2=O)=C(C(=O)OCC)C1c1cccs1` (configuration not stated) here?
The AC50 was 12.6 µM [rising, single point].

For `CCCOc1ccc(C2/C(=C(\O)c3c(C)[nH]c(C(=O)OC)c3C)C(=O)C(=O)N2CCN(C)C)cc1` (configuration not stated), which AC50 is on record?
The AC50 was 25.1 µM [rising, single point].

For `CN1CCN(c2cc(-c3ccc(N(C)C)cc3)ncn2)CC1`, which AC50 is on record?
The AC50 was 10 µM [rising, partial curve].

With `O=C(Nc1ccc(Cl)cc1)N(Cc1cccnc1)Cc1ccco1` as the compound, how does the AC50 read?
The AC50 was 20 µM [rising, single point].

For `C(=N\c1nc2ccccc2n1CCN1CCCCC1)/c1ccc2c(c1)OCO2`, which AC50 is on record?
Its AC50 is 12.6 µM [falling, partial curve].

For `COc1ccc(-n2c(=O)cnc3cnc(N4CCNCC4)nc32)cc1`, which AC50 is on record?
The AC50 was 10 µM [rising, partial curve].

With `CCOc1ccc(-n2cc(C(=O)Nc3cccc(C)n3)c3cc(OC)c(OC)cc3c2=O)cc1` as the compound, how does the AC50 read?
The AC50 was 1.58 µM [rising, partial curve].

For `CCOC(=O)c1ccccc1NC(=O)Cn1c(-c2nonc2N)nc2ccccc21`, which AC50 is on record?
The AC50 was 2 µM [rising, full curve].

With `Cc1cc(NC(=O)Nc2cccs2)no1` as the compound, how does the AC50 read?
The AC50 was 25.1 µM [falling, single point].

Which AC50 does the source give for `COC(=O)c1[nH]c2cc(C)ccc2c1NC(=O)CN1CCCc2ccccc21` here?
Its AC50 is 2.51 µM [falling, partial curve, poor fit].

With `COc1ccc(S(=O)(=O)N(Cc2ccc(OC)c(OC)c2)Cc2ccco2)cc1` as the compound, how does the AC50 read?
Its AC50 is 3.98 µM [rising, partial curve, poor fit].

Which AC50 does the source give for `CCOC(=O)C1CCCN(c2nc3ccccc3nc2C(C#N)C(=O)OCC)C1` (configuration not stated) here?
The AC50 was 10 µM [rising, partial curve].

With `COc1cccc(C(c2sc3nc(C)nn3c2O)N2CCN(c3ccccc3F)CC2)c1` (configuration not stated) as the compound, how does the AC50 read?
The AC50 was 12.6 µM [rising, partial curve].

Which AC50 does the source give for `CCOc1ncccc1C(=O)OCc1cn2cc(Cl)ccc2n1` here?
The AC50 was 10 µM [rising, partial curve].

For `Cc1cccn2c(=O)c3cc(C(=O)N4COCC4(C)C)n(C)c3nc12`, which AC50 is on record?
The AC50 was 1 µM [rising, full curve].

For `COC(=O)c1cc(OC)c(OC)cc1NC(=O)CC1CCCCC1`, which AC50 is on record?
Its AC50 is 10 µM [rising, single point].

With `Cc1cc(-n2c(C)cc(C(=O)CSc3nnc4sc5ccccc5n34)c2C)no1` as the compound, how does the AC50 read?
The AC50 was 3.98 µM [falling, single point].

Which AC50 does the source give for `COc1cccc(CNC(=O)CCS(=O)(=O)c2cccc3nonc23)c1` here?
Its AC50 is 25.1 µM [falling, single point].

For `CCCCOC(=O)n1c(=O)oc2cc(S(=O)(=O)N3CCCCC3)ccc21`, which AC50 is on record?
Its AC50 is 31.6 µM [falling, single point].

Which AC50 does the source give for `O=C(O)c1cnn2c1NC(c1ccc(F)cc1)CC2C(F)(F)F` (configuration not stated) here?
The AC50 was 0.00398 µM [falling, full curve, poor fit].

For `Cc1cc2ccccc2n1CCNC(=O)COc1ccccc1`, which AC50 is on record?
Its AC50 is 12.6 µM [rising, partial curve].

Which AC50 does the source give for `C[C@@H](C(=O)Nc1ccc2ccccc2c1)[C@H]1C[C@]1(C)[C@H](NC(=O)c1ccccc1)c1ccccc1` here?
Its AC50 is 0.501 µM [falling, full curve].

With `COc1ccc(N2CCN(C(=O)c3cn(C4CCCC4)c(=O)c4c3c3ccccc3n4C)CC2)cc1` as the compound, how does the AC50 read?
The AC50 was 3.16 µM [rising, partial curve].

Which AC50 does the source give for `CCCOC(=O)CSc1nc(N)c(C#N)c(CC)c1C#N` here?
The AC50 was 15.8 µM [rising, partial curve].

With `NC[C@@H]1O[C@H](C23CC4CC(CC(C4)C2)C3)Cc2c1ccc(O)c2O` as the compound, how does the AC50 read?
Its AC50 is 25.1 µM [falling, partial curve, poor fit].

Which AC50 does the source give for `COC(=O)n1c(SC)nc2ccccc21` here?
The AC50 was 10 µM [rising, partial curve].

For `C#CCSc1nsc(SCC#C)c1C#N`, which AC50 is on record?
The AC50 was 0.00316 µM [falling, full curve, poor fit].

Which AC50 does the source give for `O=C(CSc1nnc(C2COc3ccccc3O2)o1)N1CCCc2ccccc21` (configuration not stated) here?
The AC50 was 0.0501 µM [falling, full curve].

Which AC50 does the source give for `CC(C)(C)c1ccc(O)c(O)c1` here?
Its AC50 is 1.58 µM [falling, full curve, poor fit].

Which AC50 does the source give for `CC(C)c1nc2sc3c(NCc4ccco4)ncnc3c2c2c1COC(C)(C)C2` here?
The AC50 was 1.58 µM [falling, full curve, poor fit].

Which AC50 does the source give for `Cn1nc(-c2ccc(OCC(=O)Nc3cccnc3)cc2)c2ccccc2c1=O` here?
The AC50 was 12.6 µM [rising, single point].

Which AC50 does the source give for `CCc1ccc(-c2nc(CN3CCC(C(=O)NCc4ccc(F)cc4)CC3)c(C)o2)cc1` here?
The AC50 was 3.98 µM [falling, full curve, poor fit].

With `CC1CCN(C(=O)Cn2c(SCC(=O)Nc3nccs3)nc3ccccc32)CC1` as the compound, how does the AC50 read?
The AC50 was 10 µM [rising, single point].

With `Nc1nc(-c2ccccc2)cc(-c2ccccc2O)n1` as the compound, how does the AC50 read?
The AC50 was 0.0501 µM [falling, full curve, poor fit].

Which AC50 does the source give for `Cc1ccc2nc3c(c(C(=O)O)c2c1)CCC3` here?
The AC50 was 5.01 µM [falling, single point].

Which AC50 does the source give for `COC(=O)C1=C(C)N(C2CCCC2)C(=O)C1(NC(C)=O)C(F)(F)F` (configuration not stated) here?
The AC50 was 12.6 µM [falling, partial curve].

With `O=c1c(-c2cc(F)cc(F)c2)nc2cnc(N3CCNCC3)nc2n1-c1ccccc1` as the compound, how does the AC50 read?
Its AC50 is 2 µM [rising, full curve].

Which AC50 does the source give for `CCc1ccc(CCC(=O)Nc2nnc(C)s2)o1` here?
Its AC50 is 10 µM [falling, partial curve].

With `Cc1ccc2c(c1)N(CCC(=O)NCc1ccco1)C(=O)CO2` as the compound, how does the AC50 read?
Its AC50 is 0.00398 µM [falling, full curve, poor fit].

For `Clc1ccc2oc(-c3ccccn3)nc2c1`, which AC50 is on record?
The AC50 was 12.6 µM [rising, single point].

Which AC50 does the source give for `COC(=O)c1ccc(C(=O)OC)c(NC(=O)COC(=O)C23CC4CC(CC(O)(C4)C2)C3)c1` here?
Its AC50 is 10 µM [rising, single point].

With `COCCNC(=O)NC1(C(F)(F)F)Oc2ccc(Cl)cc2O1` (configuration not stated) as the compound, how does the AC50 read?
The AC50 was 25.1 µM [falling, single point].

Which AC50 does the source give for `Cc1nnc(SCc2ccc(C(=O)c3ccc(Cl)cc3)o2)n1-c1ccccc1` here?
The AC50 was 20 µM [rising, partial curve].

For `C[C@@](Cc1ccc(O)c(O)c1)(NN)C(=O)O`, which AC50 is on record?
The AC50 was 25.1 µM [falling, partial curve, poor fit].

For `Cc1nnc(Oc2ccccc2)c2ccccc12`, which AC50 is on record?
Its AC50 is 3.16 µM [falling, single point].

Which AC50 does the source give for `CCC(C)(C(=O)Nc1ccc2c(c1)OCCO2)N(C(C)=O)c1ccc(C(N)=O)cc1` (configuration not stated) here?
Its AC50 is 31.6 µM [falling, single point].

With `CCCCOC(=O)c1cccc(NC(=O)CC)c1` as the compound, how does the AC50 read?
The AC50 was 6.31 µM [rising, partial curve].

For `Cc1sc2nc(C3CC3)nc(NCCNS(C)(=O)=O)c2c1C`, which AC50 is on record?
The AC50 was 12.6 µM [rising, partial curve].

For `Cc1cccc2cc(CN(CCCO)C(=O)Nc3ccccc3Cl)c(=O)[nH]c12`, which AC50 is on record?
The AC50 was 1.58 µM [falling, full curve].

With `CCCn1c(C)nc2c(NCCO)nc(C)nc21` as the compound, how does the AC50 read?
Its AC50 is 10 µM [rising, partial curve].

For `O=S(=O)(c1ccc(F)cc1)N1CCC(N2CCN(c3ccccc3)CC2)CC1`, which AC50 is on record?
Its AC50 is 1 µM [falling, full curve, poor fit].

Which AC50 does the source give for `COc1ccc(N2C(=O)C3CCCN3C2c2cc(OC)c(OC)cc2OC)cc1` (configuration not stated) here?
Its AC50 is 10 µM [rising, single point].

With `Cc1ccc(NC(=O)CSc2nnc(Cc3cccn3C)n2-c2ccc(F)cc2)cc1` as the compound, how does the AC50 read?
The AC50 was 10 µM [falling, partial curve].

For `O=C(C1CC1)N1CCc2cc(S(=O)(=O)N(CCO)Cc3ccccc3)ccc21`, which AC50 is on record?
The AC50 was 12.6 µM [rising, single point].

Which AC50 does the source give for `CCCCN1CN(S(=O)(=O)c2cccs2)c2nc3ccccc3nc21` here?
Its AC50 is 10 µM [rising, partial curve].

With `CCOC(=O)N1CCN(CC(=O)Nc2c(C(=O)OC)[nH]c3cccc(Cl)c23)CC1` as the compound, how does the AC50 read?
Its AC50 is 3.98 µM [falling, partial curve].

Which AC50 does the source give for `CN(C)S(=O)(=O)NC(c1ccccc1)c1ccccc1` here?
Its AC50 is 2 µM [falling, partial curve].

Which AC50 does the source give for `COc1cc2ncnc(Nc3cccc(Br)c3)c2cc1OC` here?
Its AC50 is 1.26 µM [rising, full curve].

With `CCOC(=O)c1nn(-c2ccccc2)c(C#N)c1NC(=O)c1nn(CC)cc1Br` as the compound, how does the AC50 read?
Its AC50 is 1.58 µM [rising, partial curve].

For `Cc1ccc(N(Cc2ccccc2)Cc2ccccc2)cc1`, which AC50 is on record?
The AC50 was 5.01 µM [rising, single point].

For `CC(=O)c1sc(Nc2nc3ccc(F)cc3s2)nc1C`, which AC50 is on record?
The AC50 was 10 µM [rising, partial curve].

Which AC50 does the source give for `CCOCCn1c(N(C)Cc2ccccc2)nc2c1c(=O)[nH]c(=O)n2C` here?
The AC50 was 12.6 µM [rising, single point].

With `O=C(CSc1nnc(Cc2cccs2)n1Cc1ccco1)Nc1cc(Cl)cc(Cl)c1` as the compound, how does the AC50 read?
Its AC50 is 7.94 µM [falling, partial curve, poor fit].

With `Cc1cc(NC(=O)CSc2ccc3nnc(-c4cccs4)n3n2)no1` as the compound, how does the AC50 read?
Its AC50 is 10 µM [rising, partial curve].

For `O=S(=O)(Nc1ccc(Cl)c(C(F)(F)F)c1)c1cnc[nH]1`, which AC50 is on record?
Its AC50 is 12.6 µM [falling, partial curve].

With `COc1cccc(Cn2c(=O)c(-c3ccc(Cl)cc3)nc3cncnc32)c1` as the compound, how does the AC50 read?
Its AC50 is 10 µM [rising, partial curve].

With `CN(C)c1ccc(-c2nccc(NCc3cccs3)n2)cc1` as the compound, how does the AC50 read?
The AC50 was 10 µM [rising, partial curve].
